Measured data: PubChem BioAssay AID1259254 (NCATS, 2017)
Assay: 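Finding genes that stop cells copying their DNA twice in one cycle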 (primary screen). System: human HCT116 colorectal cancer cells. Reagents: single siRNA against human genes. Time to read-out: 3 days. Measurement: 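Nuclei stained with Hoechst and imaged; cell-cycle phase assigned by DNA content; G2 share scaled per plate, non-targeting siRNA 0%, GMNN siRNA 100%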. Scale: G2 robust z-score and G2 cells, % of GMNN control: higher = more G2 cells, more excess DNA replication; raw share of cells in G2: higher = larger share of cells with G2 DNA content. Call rule: 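Active siRNAs have a G2 robust z of 5 or more median absolute deviations over the median, which in these data means about 38% or higher of GMNN control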.
The deposit covers about 59,000 reagents; this is an unselected part. Of all reagents, about 1,550 (2.6%) were called active. 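G2 share is only a proxy for re-replication; each gene was hit by three separate siRNAs, and active genes were retested.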 Raw values vary from plate to plate and are shown uncorrected. The numbers tell different reagents against one gene apart. The record does not give: the amount of reagent.

target gene	siRNA no.	G2 robust z-score	G2 cells, % of GMNN control	raw share of cells in G2 (%)	outcome
PLTP (GeneID 5360)	1	1.92	16.5	11	inactive
PLTP (GeneID 5360)	2	3.51	27.6	13.3	inactive
PLTP (GeneID 5360)	3	-0.386	0.252	5.06	inactive
SPINK14 (GeneID 408187)	1	0.924	9.47	10	inactive
SPINK14 (GeneID 408187)	2	-0.762	-2.39	4.03	inactive
SPINK14 (GeneID 408187)	3	0.244	4.68	5.99	inactive
SPDYE3 (GeneID 441272)	1	0.234	4.61	5.4	inactive
SPDYE3 (GeneID 441272)	2	-0.654	-1.63	2.8	inactive
SPDYE3 (GeneID 441272)	3	0.211	4.45	4.63	inactive
LOC645195 (retired record) (GeneID 645195)	1	-0.206	1.52	3.59	inactive
LOC645195 (retired record) (GeneID 645195)	2	1.34	12.4	8.35	inactive
LOC645195 (retired record) (GeneID 645195)	3	0.988	9.92	6.84	inactive
THBS4 (GeneID 7060)	1	-1.18	-5.36	3.88	inactive
THBS4 (GeneID 7060)	2	1.38	12.7	8.89	inactive
THBS4 (GeneID 7060)	3	1.35	12.4	8.07	inactive
C9orf72 (GeneID 203228)	1	1.83	15.8	9.32	inactive
C9orf72 (GeneID 203228)	2	0.52	6.63	5.4	inactive
C9orf72 (GeneID 203228)	3	-0.304	0.826	3.46	inactive
TIMP2 (GeneID 7077)	1	-1.07	-4.56	3.63	inactive
TIMP2 (GeneID 7077)	2	-1.12	-4.94	2.45	inactive
TIMP2 (GeneID 7077)	3	-0.57	-1.04	4.43	inactive
SRSF7 (GeneID 6432)	1	2.29	19.1	11.1	inactive
SRSF7 (GeneID 6432)	2	0.327	5.27	5.7	inactive
SRSF7 (GeneID 6432)	3	1.57	14	10.4	inactive
ZEB1 (GeneID 6935)	1	-0.856	-3.06	2.25	inactive
ZEB1 (GeneID 6935)	2	0.275	4.9	7.14	inactive
ZEB1 (GeneID 6935)	3	-0.599	-1.25	2.66	inactive
CPT1A (GeneID 1374)	1	-0.436	-0.0997	4.93	inactive
CPT1A (GeneID 1374)	2	-0.266	1.1	5.39	inactive
CPT1A (GeneID 1374)	3	0.23	4.58	5.67	inactive
